Laboratory results taken from PubChem BioAssay AID588497 (NMMLSC, 2011).
The whole screen tested about 360,000 compounds, of which about 780 (0.22%) were called active. This list was built around the results that the source calls inconclusive (neither active nor inactive); the mix of calls is not that of the screen. Rule as the data show it: active = inhibition above about 35% (passing the limit was not always enough); inconclusive = no clear call, values can overlap the other calls.

The compounds below were run on Botulinum neurotoxin type F light chain protease (Clostridium botulinum) (assay: BoNT/F light chain protease inhibitors, primary screen, biochemical, flow cytometry, MLPCN library (AID 588497; also: plate controls were buffer without enzyme for full effect and enzyme alone for no effect)). Conditions: Multiplex microsphere protease cleavage assay, at 10 µM, stronger effect = higher value.

SMILES | inhibition
O=C(NCCc1ccccc1)c1ccc2nc3cc(Cl)ccc3c(=O)n2c1 | inactive: -3.4%
COc1cccc2[nH]c3c(N4CCC5(CC4)OCCO5)ncnc3c12 | inconclusive: -32.8%
CNS(=O)(=O)c1cccc(C(=O)Nc2cccnc2)c1 | inactive: -5.3%
COc1ccc(/C=C/C(=O)c2ccccc2O)cc1CN1CCOCC1 | inconclusive: -39.1%
CCOc1ccc(C(=O)CCC(=O)O)cc1 | inactive: -2.5%
CCN(C(=O)c1cccs1)c1nc(-c2ccc(OC)cc2)cs1 | inactive: -0.8%
Cc1cc2c(c(=O)o1)C(c1ccc([N+](=O)[O-])o1)C(C#N)=C(N)O2 (stereo unspecified) | inconclusive: -54.4%
O=C(Nc1cccc(C(F)(F)F)c1)c1ccco1 | inactive: -3.9%
COc1ccc(C(=O)Oc2c(C)occc2=O)cc1OC | inconclusive: -32.7%
CN1C(=O)C(C)(C)N(C(=O)c2cccc([N+](=O)[O-])c2)c2ccccc21 | inconclusive: -11.4%
CC(=O)Nc1coc2ccc(Br)cc12 | inconclusive: 16%
Cc1cc2oc(=O)cc(CNc3ccccc3F)c2cc1O | inconclusive: -9.8%
CCOC(=O)C1=NNC(C(=O)c2ccccc2)C1c1ccc(C)cc1 (stereo unspecified) | inconclusive: 95.3%
NC(=O)c1cc(NC(=O)CCNS(=O)(=O)c2cccc(C(F)(F)F)c2)cc(C(N)=O)c1 | inactive: -1.4%
Cc1cc(N=Nc2ccc(Cl)cc2)cc(CN2CCCC2)c1O | inconclusive: 41.2%
CSCC(=O)N1CCc2ccc(NC(=O)c3ccccc3Cl)cc2C1 | inconclusive: -3.3%
O=C(Nc1ccc(S(=O)(=O)N2CCOCC2)cc1)c1ccc([N+](=O)[O-])cc1Cl | inactive: -19.1%
COC(=O)c1ccc(/C=N/N2CCN(Cc3ccccc3)CC2)cc1 | inactive: -10.7%
COc1cc(N)ccc1-c1cc2ccccc2oc1=O | inconclusive: 3.4%
COC(=O)C1=C(N)OC2=C(C(=O)CCC2)C1c1ccc2c(c1)OCO2 (stereo unspecified) | inconclusive: -26.7%
CCC1(C)Cc2ccccc2C(=O)N1 (stereo unspecified) | inconclusive: -49.1%
O=[N+]([O-])c1cccc(-c2cc(C(F)(F)F)n3nc(-c4ccccc4)cc3n2)c1 | inconclusive: 53.4%
O=C(/C=C/c1ccco1)NCc1ccco1 | inconclusive: -47.1%
CCCCOc1ccc(CSC(=N)N)cc1Cl | inconclusive: -1.2%
O=C(CNC(=O)c1cccs1)N=Nc1c(O)[nH]c2ccc([N+](=O)[O-])cc12 | inactive: 4.6%
CC(C)(C)c1cc(OC(=O)c2ccncc2)ccc1O | inconclusive: 11%

A few values from the list.
Value for CCOc1ccc(C(=O)CCC(=O)O)cc1 under inhibition: inactive: -2.5%
Value for NC(=O)c1cc(NC(=O)CCNS(=O)(=O)c2cccc(C(F)(F)F)c2)cc(C(N)=O)c1 under inhibition: inactive: -1.4%
